Experimental data from the supplement of paper PMC3334620.
Over roughly 33,000 sequences, “E-score (-0.5 to 0.5)” has its median near -0.0034; the highest 2% begin near 0.25. The list shows a part of the results.

These sequences were tested against T1, Yap3 (UniProt P38749) (assay: PBM E-score (8-mer binding enrichment) (E-score (-0.5 to 0.5)); higher = stronger / more preferred TF binding). Conditions: protein concentration: 100 nM; construct: GST-full length.
T1 sequence: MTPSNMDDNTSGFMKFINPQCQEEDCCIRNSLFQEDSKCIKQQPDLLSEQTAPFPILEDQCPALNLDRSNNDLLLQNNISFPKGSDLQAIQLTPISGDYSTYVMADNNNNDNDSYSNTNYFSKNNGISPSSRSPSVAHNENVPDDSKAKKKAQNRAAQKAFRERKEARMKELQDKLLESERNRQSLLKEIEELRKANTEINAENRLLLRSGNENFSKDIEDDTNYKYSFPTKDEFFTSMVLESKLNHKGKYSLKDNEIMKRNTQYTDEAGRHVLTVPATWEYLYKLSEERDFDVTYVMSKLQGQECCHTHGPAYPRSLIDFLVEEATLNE
Experimental: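 Universal 'all 10-mer' protein binding microarrays (Agilent AMADID 015681) probed with GST-tagged S. cerevisiae TFs (full-length or DBD) made by in vitro transcription/translation (PURExpress), about 100-200 nM. Bound TF was detected with fluorescent anti-GST. Each ungapped 8-mer (which stands for itself and its reverse complement) is scored by the PBM enrichment score (E-score), a modified Wilcoxon-Mann-Whitney statistic from -0.5 to +0.5, computed with the Universal PBM Analysis Suite. Scale: above 0.35 generally sequence-specific binding.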

| Sequence | PBM E-score |
| --- | --- |
| AGCGGAGA | 0.226 |
| ACAAGGGC | -0.214 |
| AGTGTAAG | 0.102 |
| CCCTAAGG | -0.281 |
| CATAGCTA | -0.119 |
| CGAGGCCA | -0.102 |
| ATGGAGAG | -0.0561 |
| GTCGGATA | 0.0653 |
| ACTATATC | 0.227 |
| CCCGTGAC | -0.198 |
| AGGCGACG | -0.00164 |
| GGGGACCC | -0.395 |
| AATCTCCT | -0.0372 |
| ATTTCACC | 0.0904 |
| CAACGTTC | -0.0508 |
| ACTCAAGG | -0.168 |
| TACCCCGA | -0.019 |
| GTACAAAA | 0.233 |
| CTGTTGAA | -0.0364 |
| ATCGTGTG | 0.132 |
| CTTTCCTA | 0.0167 |
| AGGTTGGA | 0.0606 |
| ACTTTAAC | 0.0581 |
| ACTGGTTA | 0.00084 |
| ACAGGCCA | -0.083 |

| Sequence | PBM E-score |
| --- | --- |
| ATTTTGGC | 0.238 |
| AGAAGTAG | 0.00557 |
| ATATCCCA | 0.0917 |
| CGTCAATC | 0.0678 |
| CAGTTGTA | 0.0508 |
| AGCGGTTA | -0.0396 |
| AGGGAGCG | -0.212 |
| ATGCCTTC | -0.171 |
| ACGATTGG | 0.0545 |
| CCATCTCG | 0.0193 |
| CTGGTGTA | -0.0509 |
| CATACCGG | -0.0569 |
| ATATTCAT | 0.172 |
| ACCGTCTC | 0.0687 |
| CCGTTGAC | -0.172 |
| CCTTTCCC | -0.0663 |
| ATGTAAAA | 0.173 |
| ACCGACCA | 0.0683 |
| ATCAAGGA | 0.0728 |
| AAAGATCA | 0.0103 |
| ACACCTAC | 0.0957 |
| ATTCATAC | 0.189 |
| AACCATCA | 0.112 |
| ACAACAGG | -0.0616 |
| GATTTTAA | 0.2 |

| Sequence | PBM E-score |
| --- | --- |
| ATGAGTGC | 0.122 |
| ATGCAAAT | 0.0519 |
| CTAAAAAA | 0.183 |
| CAAGGTAA | 0.0895 |
| CTCTTATC | 0.131 |
| CTTATCAA | 0.204 |
| ATGGATTG | 0.188 |
| AAAATCAG | 0.107 |
| AGAGAAGC | -0.0978 |
| GGCTGGCA | -0.378 |
| GCTCTACA | 0.0617 |
| AGTACTAC | 0.134 |
| ATAGGCAC | -0.0964 |
| ACTATACG | 0.108 |
| AGTTAGCA | 0.119 |
| AGCGGTAA | 0.0618 |
| AATAAAGA | 0.156 |
| AATGCATA | 0.0923 |
| ACCAGAGG | -0.119 |
| ACAATAGG | 0.088 |
| CCGGGATC | -0.105 |
| TCGTCTAA | -0.0806 |
| AGAGGCCA | -0.185 |
| GACTCCTC | -0.036 |
| AGTGCGAG | -0.0671 |

| Sequence | PBM E-score |
| --- | --- |
| CGTATCTC | -0.0678 |
| ATAGTCTG | 0.0847 |
| AGCCCGAT | -0.11 |
| TGTCCCAA | -0.166 |
| ATCGTGGG | 0.11 |
| GAGCGAGC | 0.00163 |
| AACAGGGG | -0.00938 |
| GCTTCGCA | -0.166 |
| AGGGCAAG | 0.0117 |
| ATACGATG | 0.066 |
| ACTGTCTA | -0.0396 |
| ACTTCAAG | -0.0429 |
| ACGTATGG | 0.0905 |
| GTGAAGGA | 0.0852 |
| CAAACCGA | -0.00591 |
| CACAGCCC | -0.221 |
| GCAAAGAA | 0.0916 |
| AAAAATTT | 0.145 |
| ACGAAAAT | 0.257 |
| ATGAACAC | 0.0717 |
| AGGCTTGG | -0.166 |
| AACCCGCA | -0.0181 |
| ACATAGTC | 0.0935 |
| GAGTCGAC | 0.0559 |
| AGAAAGTC | 0.0514 |

| Sequence | PBM E-score |
| --- | --- |
| ATAAATCG | 0.109 |
| ACCCTGCT | -0.174 |
| CGTCGACA | 0.00884 |
| GACAAGCC | -0.0729 |
| ACTCTCAG | 0.0548 |
| CTCCGAAC | -0.0453 |
| ATGTGTTG | 0.198 |
| CCATGAGC | -0.194 |
| CCGGAAAC | -0.0123 |
| GGTCAGAA | -0.119 |
| GGAATTAA | 0.233 |
| CATACAAG | 0.00251 |
| CTCCCAAC | -0.195 |
| CTCGTCGC | 0.00055 |
| AGGTCAAA | -0.0362 |
| ACTCAGCA | 0.0153 |
| GACTGGGA | 0.0479 |
| GACAGGGC | -0.167 |
| ATAGCGAG | 0.0819 |
| GTCTTCGA | -0.122 |
| CGAGTGAG | -0.0523 |
| GGTTGCTA | -0.0649 |
| ACCTGTGC | -0.0524 |
| AGAACACT | 0.0137 |
| GCGTCATA | 0.209 |

3 consecutive entries out of the list so far:

| Sequence | PBM E-score |
| --- | --- |
| ATGGAGAG | -0.0561 |
| GTCGGATA | 0.0653 |
| ACTATATC | 0.227 |

Later entries.

| Sequence | PBM E-score |
| --- | --- |
| CTACCAAA | 0.00866 |
| TCTCCAGA | -0.251 |
| AAGAGTGA | -0.0417 |
| CTAGGTCC | -0.0823 |
| AGCCACCG | -0.111 |
| TGCTCCCA | -0.0936 |
| GGGTGCCA | -0.13 |
| AGGTAAAA | 0.0276 |
| TTGTACAA | 0.185 |
| GCAGCTGA | 0.0588 |
| AATCTTTG | 0.0886 |
| CTACAAAA | 0.0817 |
| GAACACCC | -0.207 |
| GCGACAGA | 0.0746 |
| ACCTGGAC | -0.196 |
| AATTTATC | 0.325 |
| AGTAAAGA | 0.16 |
| CAAGACAA | 0.0625 |
| AAAACTAT | 0.182 |
| AATCGGAG | -0.0484 |
| CTAGATAC | 0.0496 |
| CAAAACAG | 0.17 |
| GGGAACCA | -0.182 |
| GAAAGGCC | -0.0874 |
| GGGGACTA | -0.273 |

| Sequence | PBM E-score |
| --- | --- |
| CTGGTACA | -0.0224 |
| ATGGTTTG | 0.0243 |
| GATTCCCC | -0.0797 |
| AACTGTTG | -0.00018 |
| GAAGTCGA | 0.0787 |
| AGCCAAGC | -0.0982 |
| GCTCTCAA | -0.0253 |
| AAGCCGCA | -0.0498 |
| ATAGCAGA | 0.0204 |
| GCATGTAC | 0.105 |
| CTCGTAAG | 0.257 |
| CATAGCAA | 0.0682 |
| GGTGAGCA | -0.124 |
| ATTGCGAC | 0.157 |
| CACTTCTC | -0.077 |
| AGGCGGAT | -0.0189 |
| GCGGTGGA | -0.0216 |
| CCTTACTC | 0.183 |
| CGAGTGCA | 0.0244 |
| AGCTTATC | 0.0721 |
| CGGCTGAG | -0.0827 |
| CTCCCGAG | -0.198 |

Another view of part of the listing above.
Sequence | PBM E-score
GAAGTCGA | 0.0787
AGCCAAGC | -0.0982
GCTCTCAA | -0.0253
AAGCCGCA | -0.0498
ATAGCAGA | 0.0204
GCATGTAC | 0.105
CTCGTAAG | 0.257
